Test results taken from PMC6468242.
Where two headings read alike, the source gives them in different places. No constants are given. Whether binding was seen depends on the method and setting. In cells and extracts the contact can be indirect. Some entries that bind do so weakly or less than the wild type. Where a sequence is shown, tags or fusion partners need not be part of it.

Protein sequences, listed by entry. Tags and fused reporters are not part of them.
UniProt O76216: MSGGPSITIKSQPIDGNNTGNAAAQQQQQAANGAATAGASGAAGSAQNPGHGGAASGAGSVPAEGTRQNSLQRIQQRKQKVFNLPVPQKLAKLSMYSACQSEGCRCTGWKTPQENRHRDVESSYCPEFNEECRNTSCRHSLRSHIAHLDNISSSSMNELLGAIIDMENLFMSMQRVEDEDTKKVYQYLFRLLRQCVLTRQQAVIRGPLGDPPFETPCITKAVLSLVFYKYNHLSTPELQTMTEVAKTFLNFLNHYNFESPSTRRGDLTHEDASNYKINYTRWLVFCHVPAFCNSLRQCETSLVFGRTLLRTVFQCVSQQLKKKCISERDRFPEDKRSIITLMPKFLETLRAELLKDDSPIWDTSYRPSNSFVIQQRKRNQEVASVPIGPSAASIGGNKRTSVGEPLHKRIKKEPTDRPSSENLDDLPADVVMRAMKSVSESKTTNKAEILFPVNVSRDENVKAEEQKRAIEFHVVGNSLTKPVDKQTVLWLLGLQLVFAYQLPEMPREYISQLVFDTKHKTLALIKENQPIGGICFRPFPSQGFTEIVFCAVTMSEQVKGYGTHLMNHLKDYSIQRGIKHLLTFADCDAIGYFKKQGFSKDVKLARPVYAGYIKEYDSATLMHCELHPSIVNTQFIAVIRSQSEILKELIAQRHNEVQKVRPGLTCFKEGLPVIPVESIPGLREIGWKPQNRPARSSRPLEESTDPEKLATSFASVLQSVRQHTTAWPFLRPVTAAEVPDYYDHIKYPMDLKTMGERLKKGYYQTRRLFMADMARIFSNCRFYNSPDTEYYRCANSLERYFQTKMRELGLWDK

T1: Ada2b isoform B, C-terminally HA2-Flag2 tagged (Ada2b-PBH2F2) (Drosophila) (UniProt Q8I8V0)
T1 sequence: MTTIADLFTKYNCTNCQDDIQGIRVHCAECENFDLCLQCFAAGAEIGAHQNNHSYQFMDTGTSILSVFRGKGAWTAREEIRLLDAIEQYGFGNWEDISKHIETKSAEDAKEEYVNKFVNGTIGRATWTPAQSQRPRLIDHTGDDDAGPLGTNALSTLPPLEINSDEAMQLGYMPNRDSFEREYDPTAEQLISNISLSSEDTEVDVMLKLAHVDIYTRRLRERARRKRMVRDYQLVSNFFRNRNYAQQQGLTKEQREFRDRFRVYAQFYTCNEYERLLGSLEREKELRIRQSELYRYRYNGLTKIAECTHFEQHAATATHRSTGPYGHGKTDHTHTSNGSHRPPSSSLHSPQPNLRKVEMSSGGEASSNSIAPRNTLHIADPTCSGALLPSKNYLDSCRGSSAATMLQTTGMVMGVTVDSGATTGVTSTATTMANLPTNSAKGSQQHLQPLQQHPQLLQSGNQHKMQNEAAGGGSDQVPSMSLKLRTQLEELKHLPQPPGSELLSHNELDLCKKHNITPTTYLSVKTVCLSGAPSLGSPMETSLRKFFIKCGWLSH


Key:
[1] = target: T1, Ada2b isoform B, C-terminally HA2-Flag2 tagged (Ada2b-PBH2F2) (Drosophila); test: co-IP + SEC; Flag affinity purification (M2 anti-Flag beads, high salt washes, 3x Flag peptide elution) of Ada2b-PBH2F2 from S2 nuclear extract, eluate separated on Superose 6, fractions probed by Western blot
[2] = target: T1, Ada2b isoform B, C-terminally HA2-Flag2 tagged (Ada2b-PBH2F2) (Drosophila); test: as above; remark: listed apart in the source

binding [1]	binding [2]	Molecule
binds	–	Gcn5 (from UniProt O76216 1-813) (enzyme)
–	binds	Spt3 (protein, UniProt Q9VGE2 1-384) MNYNAKRVMRQNSVCVGSNDMAASPIMIGPAPPSAPSTPQLQTTEDIKPLLVQRQVILLQSGSIPTNPSPQQINLAGHNVAGGASGSNVANVLIPDDAPVSLLTEIADIMRSFGDSDQPRTGSVKLVEQILQQQLRGIFNEASLVAMRRKQNPCPSQADFEFLMRNHPVKIARMRKHLKDMRILKRFLSIRTGRPQDFMDDLEQQEEDEELAIDVYELHDEDRMRRLFRADRISQILTGQQYLEFNEARKTSFYCRHGEKIKNKFRRFLDLPADLRIPTPTMNILAYLAHETIAAIVDYSILTRLNSDNRATEPYSRVTSAGGSPAMMHVCPEVTQGRGMEVVKPISVPEIHEAMRRFRQMSSRKIGRYRNSCDIDFRRSFLAI
